Results deposited as PubChem BioAssay AID504774 (Drosophila RNAi Screening Center, 2011).

Assay: 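Knock-downs that shift viability of MMS-exposed cells relative to untreated ones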 (primary screen)
Cell system: Drosophila Kc167 cells
Knock-down reagent: long dsRNA against Drosophila genes, about 0.25 µg dsRNA per well
Time to read-out: about 6 days: 3 days knock-down, then 3 days with or without MMS
Challenge: methyl methanesulphonate 0.004% (w/v) for 3 days after knock-down
Read-out: 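ATP-dependent luminescence as a measure of live cells in MMS-exposed wells, quantile normalised within each plate, with replicate values also given as a mean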
Reading the numbers: mean viability with MMS and viability with MMS: higher = more surviving cells after MMS
In all, the deposit lists about 23,000 reagents; below is a random part of those that have a named target and a result. 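Values are quantile-normalised luminescence on an arbitrary scale; higher means more cells surviving MMS.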

The opening 4 entries as a preview:
no.	Target gene	dsRNA	mean viability with MMS	viability with MMS, replicate 1	viability with MMS, replicate 2
1	kay	DRSC13962	3.42e6	3.90e6	3.84e6
2	kay	DRSC15048	3.14e6	3.58e6	3.57e6
3	kay	DRSC16977	3.35e6	3.81e6	3.82e6
4	NELF-B	DRSC17734	3.38e6	4.05e6	3.81e6

The list itself, from the first entry:
no.	Target gene	dsRNA	mean viability with MMS	viability with MMS, replicate 1	viability with MMS, replicate 2
1	kay	DRSC13962	3.42e6	3.90e6	3.84e6
2	kay	DRSC15048	3.14e6	3.58e6	3.57e6
3	kay	DRSC16977	3.35e6	3.81e6	3.82e6
4	NELF-B	DRSC17734	3.38e6	4.05e6	3.81e6
5	nrv3	DRSC03097	2.08e6	4.23e6	
6	Shrm	DRSC06437	3.39e6	3.90e6	3.94e6
7	Shrm	DRSC06438	3.46e6	4.02e6	3.96e6
8	Shrm	DRSC07221	3.60e6	3.98e6	4.18e6
9	Shrm	DRSC23067	3.25e6	3.67e6	3.66e6
10	Ndc1	DRSC15895	3.15e6	3.67e6	3.67e6
11	CG11353	DRSC08182	3.53e6	4.01e6	3.99e6
12	aralar1	DRSC13987	3.43e6	3.95e6	3.84e6
13	aralar1	DRSC16901	3.59e6	4.13e6	4.01e6
14	Cul5	DRSC14723	3.46e6	3.91e6	3.91e6
15	CG32461	DRSC11594	3.31e6	3.78e6	3.87e6
16	SP1029	DRSC16848	3.72e6	4.20e6	4.20e6
17	Amnionless	DRSC00317	3.47e6	3.90e6	3.95e6
18	CG11586	DRSC08203	3.66e6	4.01e6	4.29e6
19	CG15706	DRSC06577	3.52e6	3.89e6	4.09e6
20	U2A	DRSC06445	3.32e6	3.78e6	3.80e6
21	CG32694	DRSC17844	3.45e6	3.89e6	3.93e6
22	CG32694	DRSC17855	3.58e6	4.07e6	4.02e6
23	CG32694	DRSC22670	3.28e6	3.82e6	3.88e6
24	CG6833	DRSC10721	3.55e6	4.02e6	4.01e6
25	CG15831 (retired record)	DRSC20816	3.56e6	4.01e6	4.05e6
26	ATPsynepsilonL	DRSC14548	3.55e6	4.00e6	4.05e6
27	CG4613	DRSC10435	3.45e6	3.82e6	3.96e6
28	lectin-46Cb	DRSC06611	3.47e6	3.97e6	3.92e6
29	5-HT2B	DRSC16360	3.54e6	4.07e6	3.97e6
30	5-HT2B	DRSC16362	3.51e6	3.99e6	3.97e6
31	TBC1D5	DRSC16421	3.44e6	3.94e6	3.81e6
32	Sol1	DRSC15263	3.64e6	4.07e6	4.11e6
33	Sol1	DRSC15271	3.70e6	4.09e6	4.18e6
34	Sol1	DRSC15681	3.61e6	4.09e6	4.04e6
35	Arf4	DRSC17195	3.66e6	4.22e6	4.07e6
36	CG11656	DRSC14338	3.60e6	4.04e6	4.16e6
37	Tollo	DRSC11305	3.50e6	3.98e6	3.93e6
38	Gr58b	DRSC04140	3.53e6	4.03e6	3.97e6
39	Acadvl	DRSC07022	3.79e6	4.32e6	4.26e6
40	CG4612	DRSC04478	3.40e6	3.65e6	3.76e6
41	Osi2	DRSC12174	3.51e6	4.01e6	3.96e6
42	Gga	DRSC18260	3.51e6	4.09e6	3.87e6
43	CG3847	DRSC17444	3.71e6	4.09e6	4.22e6
44	CG3847	DRSC18327	3.24e6	3.79e6	3.19e6
45	Klp59C	DRSC04348	3.55e6	4.19e6	3.87e6
46	Mgat3	DRSC01305	3.41e6	3.97e6	3.75e6
